{
  "source": "PubChem BioAssay AID493014",
  "about": "(National Center for Advancing Translational Sciences (NCATS), 2011)",
  "note": "The whole screen tested about 340,000 compounds, of which about 170 (0.05%) were called active. This list was built around the results that the source calls inconclusive (neither active nor inactive); the mix of calls is not that of the screen. Calls come from the whole dose curve; as a rule, active = well fitted inhibition curve with a large enough effect in the signal ratio, with a control signal flat (not every such curve was filed as active); inconclusive = small, poorly fitted or top-dose-only effect, or effect the other way, or a change in a side signal; inactive = flat fitted curve, though single readings scatter; the % refers to the signal ratio. Where the call is inconclusive, the potency comes from a doubtful curve fit. Potency is the fitted concentration of half-maximal effect.",
  "data": [
    {"assay": "qHTS Assay to Find Inhibitors of Chronic Active B-Cell Receptor Signaling;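 for activity change, negative = inhibition: plate controls were basal doxycycline-induced cells for no effect and cells given 10 µM MG132 for full effect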", "conditions": "ABC-DLBCL IkBa-CBG/CBR reporter, luminescence ratio (green luciferase fused to IkBa over red control in TMD8 lymphoma cells), 4 h; activity change, negative = inhibition: at 46.1 µM (top of the series)", "procedure,_shortened": "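TMD8 human ABC-DLBCL cells with doxycycline-inducible IκBα–green luciferase fusion and unfused red luciferase, in 0.5% FBS medium; compounds up to 46 uM, 4 h at 37C. Green/red luminescence ratio, filter-overlap corrected, fitted to concentration-response curves.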", "values": [
      {"smiles": "CCOc1ccc(N=Nc2cc(C(C)C)ccc2O)cc1", "activity change, negative = inhibition": "inconclusive: 6.43%"},
      {"smiles": "Cc1ccc(S(=O)(=O)Nc2nc3ccccc3nc2NCc2ccco2)cc1C", "activity change, negative = inhibition": "inconclusive: -0.213%"},
      {"smiles": "O=C1COc2ccc(N3C(=O)C=CC3=O)cc2N1", "Potency": "inconclusive: 35.5 µM [rising, partial curve, poor fit]"},
      {"smiles": "COCCN(C(=O)c1csnn1)C(C(=O)NC(C)(C)C)c1cccc(OC)c1", "note": "(stereo not given)", "activity change, negative = inhibition": "inconclusive: 3.31%"},
      {"smiles": "Cc1onc(-c2ccccc2Cl)c1C(=O)Oc1cccc2cccnc12", "Potency": "inconclusive: 35.5 µM [falling, single point]"},
      {"smiles": "O=c1[nH]c(-c2ccccn2)nc2ccccc12", "Potency": "inconclusive: 22.4 µM [falling, single point]"},
      {"smiles": "Cc1c(C(=O)O)sc2nc3n(c(=O)c12)CCC(C)CC3", "note": "(stereo not given)", "Potency": "inconclusive: 20.6 µM [rising, single point]"},
      {"smiles": "Cc1ccc(NC(=O)N2CCCCCC2)cc1", "activity change, negative = inhibition": "inactive: -7.86%"},
      {"smiles": "CCc1ccc2c(c1)C1(NN=C(c3cccc4ccccc34)S1)C(=O)N2", "note": "(stereo not given)", "Potency": "inconclusive: 23.1 µM [falling, partial curve]"},
      {"smiles": "CC(C)(C#CC(O)(c1ccccc1)c1ccccc1)N1CCCCC1", "activity change, negative = inhibition": "inconclusive: -13.9%"},
      {"smiles": "O=S(=O)(NCc1cc(-c2ccccc2Cl)no1)c1ccccc1", "activity change, negative = inhibition": "inconclusive: 7.61%"},
      {"smiles": "CC(=O)Nc1cccc(NS(=O)(=O)c2cc3c4c(c2)CCN4C(=O)CC3)c1", "activity change, negative = inhibition": "inconclusive: 1.68%"},
      {"smiles": "CCOC(=O)C(c1ccccc1)N1CCN(c2ccc(OC)cc2)CC1", "note": "(stereo not given)", "activity change, negative = inhibition": "inconclusive: 0.45%"},
      {"smiles": "CC(OC(=O)/C=C/c1ccc2ccccc2n1)C(=O)N(C)c1ccccc1", "note": "(stereo not given)", "activity change, negative = inhibition": "inconclusive: 1.07%"},
      {"smiles": "Cc1ccc(NC(=O)CN2C(=O)NC(Cc3ccccc3)C2=O)cc1", "note": "(stereo not given)", "activity change, negative = inhibition": "inactive: 6.07%"},
      {"smiles": "Cc1ccc(NC2CCCN(C(=O)CCC3=NNC(=O)CC3)C2)cc1C", "note": "(stereo not given)", "activity change, negative = inhibition": "inconclusive: 0.98%"},
      {"smiles": "C=CC(C)(C)c1cc2cc3ccoc3cc2oc1=O", "activity change, negative = inhibition": "inconclusive: 5.53%"},
      {"smiles": "CCN(CC)CCNC(=O)c1c(C)n(-c2ccccc2)c2cc(Br)c(OC)cc12", "Potency": "inconclusive: 10 µM [falling, partial curve]"},
      {"smiles": "O=C(CCc1c[nH]c2ccccc12)OCC(=O)N1CCN(S(=O)(=O)c2ccccc2)CC1", "activity change, negative = inhibition": "inconclusive: 8.38%"},
      {"smiles": "O=C(CN1CC(=O)Nc2ccccc21)Nc1ccc(F)c(F)c1", "Potency": "inconclusive: 31.6 µM [rising, partial curve]"},
      {"smiles": "O=C(O)CCNc1nc(C(F)(F)F)nc2ccccc12", "activity change, negative = inhibition": "inconclusive: 6.59%"},
      {"smiles": "CCCCn1c(N)c(N(CCOC)C(=O)c2cc(-c3ccncc3)nc3ccccc23)c(=O)[nH]c1=O", "activity change, negative = inhibition": "inactive: -6.28%"},
      {"smiles": "O=C(O)c1cc(-c2ccc3c(c2)OCO3)nc2ccc(Cl)cc12", "Potency": "inconclusive: 31.6 µM [falling, partial curve]"},
      {"smiles": "Cc1cccc(OCc2nnc(SCC(=O)N(C(C)C)C(C)C)n2Cc2ccco2)c1C", "activity change, negative = inhibition": "inconclusive: -14.8%"},
      {"smiles": "COc1ccccc1CNC(=O)CN(C)S(=O)(=O)c1cccc2cccnc12", "activity change, negative = inhibition": "inactive: -3.41%"},
      {"smiles": "CC1CCN(S(=O)(=O)c2cccc(S(=O)(=O)N3CCCC3)c2)CC1", "activity change, negative = inhibition": "inactive: 9.6%"},
      {"smiles": "Cc1cccc(C)c1NC(=O)COC(=O)c1cc(S(=O)(=O)Nc2ccc(Cl)cc2)ccc1O", "activity change, negative = inhibition": "inactive: 0.549%"},
      {"smiles": "COc1ccc(C2CC(=O)c3cnc(NC(=O)c4cccc(OC)c4)nc3C2)cc1", "note": "(stereo not given)", "Potency": "inconclusive: 11.2 µM [falling, single point]"},
      {"smiles": "CCOC(=O)C1(CCOc2ccccc2)CCN(Cc2cccc(OCCO)c2)CC1", "activity change, negative = inhibition": "inactive: -2.66%"},
      {"smiles": "CCN(CC)c1ccc(C(=O)NNC(=O)CCl)cc1", "activity change, negative = inhibition": "inconclusive: 10.4%"},
      {"smiles": "CC(C)c1ccc(/C=C(\\NC(=O)c2ccccc2)C(=O)NCCCN2CCOCC2)cc1", "Potency": "inconclusive: 35.5 µM [falling, single point]"},
      {"smiles": "CCc1cc(C(=O)NNC(=S)Nc2cccc(C)c2)cs1", "Potency": "inconclusive: 29.1 µM [falling, single point]"},
      {"smiles": "Fc1ccc(Cn2cccc2C2=NC(c3ccccc3)CO2)cc1", "note": "(stereo not given)", "activity change, negative = inhibition": "inconclusive: 9.22%"},
      {"smiles": "COc1ccc(-c2sc3cc4c(cc3c2C#CC2(O)CCCCC2)OCO4)cc1", "activity change, negative = inhibition": "inconclusive: 25.9%"},
      {"smiles": "Nc1c(C(=O)Nc2ccccc2)sc2nc3c(c(-c4ccco4)c12)CCCC3", "Potency": "inconclusive: 15.8 µM [rising, partial curve, poor fit]"},
      {"smiles": "COc1ccc(NC(=O)C2CCCN(S(=O)(=O)c3cccc4cccnc34)C2)cc1OC", "note": "(stereo not given)", "activity change, negative = inhibition": "inconclusive: -3.27%"},
      {"smiles": "Cc1ccc(Nc2nc(N)c3ccccc3n2)cc1Cl", "Potency": "inconclusive: 35.5 µM [falling, single point]"},
      {"smiles": "O=[N+]([O-])c1ccc2oc(C(O)c3cccc(Cl)c3)cc2c1", "note": "(stereo not given)", "activity change, negative = inhibition": "inactive: 6.04%"},
      {"smiles": "CCOc1ccc(C(=O)Nc2cccc(SC)c2)cc1", "Potency": "inconclusive: 32.6 µM [falling, partial curve, poor fit]"},
      {"smiles": "Cc1cc(Cl)c2oc(C(=O)N(C)Cc3ccon3)c(C)c2c1", "activity change, negative = inhibition": "inconclusive: 4.33%"}
    ]}
  ]
}
